Numbering of substitutions follows the chain as printed. Numbers in names are those of the source. No constants are given. Whether binding was seen depends on the method and setting. For part of these data: In cells and extracts the contact can be indirect. Some results given as binding are weak or reduced against the parent protein; the word gives no strength. Where a sequence is shown, tags or fusion partners need not be part of it. Each block holds one binder with its values, some of them ahead of it.
Key:
[1] = molecular target: T1, TRAF6 full length (Flag-tagged copy and Myc-tagged copy) (mouse), P70196; assay: co-IP; Flag-tagged TRAF6 or mutants co-transfected with Myc-tagged TRAF6 into HEK293T; immunoprecipitation with anti-Myc (Fig. 5b) or by the Flag-tagged protein (Supplementary Fig. 4b, 5d); immunoblot; lysis buffer A (20 mM Tris-HCl pH 7.4, 150 mM NaCl, 0.5% NP-40, 10% glycerol); details: remark: other sources report otherwise
T1 chain: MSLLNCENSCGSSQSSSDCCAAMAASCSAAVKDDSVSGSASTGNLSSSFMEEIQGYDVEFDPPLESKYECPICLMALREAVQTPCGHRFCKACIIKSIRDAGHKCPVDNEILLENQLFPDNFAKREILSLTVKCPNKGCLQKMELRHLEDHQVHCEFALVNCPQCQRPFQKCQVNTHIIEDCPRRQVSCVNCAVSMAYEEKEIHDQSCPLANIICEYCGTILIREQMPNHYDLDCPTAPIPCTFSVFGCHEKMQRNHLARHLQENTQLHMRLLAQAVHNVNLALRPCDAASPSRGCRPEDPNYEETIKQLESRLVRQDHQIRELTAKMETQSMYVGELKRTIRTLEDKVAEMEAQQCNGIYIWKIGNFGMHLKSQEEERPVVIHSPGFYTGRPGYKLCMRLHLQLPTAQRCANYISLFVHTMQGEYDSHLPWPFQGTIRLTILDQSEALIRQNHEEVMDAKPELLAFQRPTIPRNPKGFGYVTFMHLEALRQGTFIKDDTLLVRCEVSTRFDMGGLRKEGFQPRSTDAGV

[2] = molecular target: T2, TRAF6 mutant M5 (deletion of amino acids 313-319), Flag-tagged (mouse) (UniProt P70196); assay: as above
T2 sequence: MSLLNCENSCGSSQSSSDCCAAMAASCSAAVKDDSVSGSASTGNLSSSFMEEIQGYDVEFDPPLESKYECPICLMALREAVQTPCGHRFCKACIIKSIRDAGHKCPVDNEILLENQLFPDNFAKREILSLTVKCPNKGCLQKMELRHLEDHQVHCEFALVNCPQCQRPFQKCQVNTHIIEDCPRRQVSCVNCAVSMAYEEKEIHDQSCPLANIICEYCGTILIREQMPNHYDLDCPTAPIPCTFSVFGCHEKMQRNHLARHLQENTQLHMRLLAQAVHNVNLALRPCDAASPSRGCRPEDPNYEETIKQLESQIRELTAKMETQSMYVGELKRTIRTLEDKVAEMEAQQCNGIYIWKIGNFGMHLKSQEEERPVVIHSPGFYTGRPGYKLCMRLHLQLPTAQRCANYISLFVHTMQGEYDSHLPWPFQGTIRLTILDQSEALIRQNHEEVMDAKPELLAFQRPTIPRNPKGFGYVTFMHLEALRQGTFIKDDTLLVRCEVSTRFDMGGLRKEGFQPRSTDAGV

[3] = molecular target: T3, TRAF6 mutant M4 (V315A, R316A, H319A), Flag-tagged (mouse) (UniProt P70196); assay: as above
T3 sequence: T1 chain with V315A, R316A, H319A

[4] = molecular target: T4, TRAF6 mutant M3 (I307A, L310A, I342A, L345A), Flag-tagged (mouse) (UniProt P70196); assay: as above
T4 sequence: T1 chain with I307A, L310A, I342A, L345A

[5] = molecular target: T5, MBP-TRAF6-Flag (mouse), P70196; assay: native gel or EMSA; proteins purified on anti-Flag M2 magnetic beads, eluted, resolved on 10% native gel, immunoblot with Flag antibody; both purified; details: remark: other sources report otherwise
T5 chain: T1 chain

[6] = molecular target: T6, TRAF6 full length (Flag-tagged copy and Myc-tagged copy) (mouse) (UniProt P70196); assay: co-IP; Flag-tagged TRAF6 or mutants co-transfected with Myc-tagged TRAF6 into HEK293T; immunoprecipitation with anti-Myc (Fig. 5b) or by the Flag-tagged protein (Supplementary Fig. 4b, 5d); immunoblot; lysis buffer A (20 mM Tris-HCl pH 7.4, 150 mM NaCl, 0.5% NP-40, 10% glycerol)
T6 sequence: T1 chain

binding [1]: binds
B1: TRAF6 full length (Flag-tagged copy and Myc-tagged copy), P70196-1 1-530 (protein)
chain: T1 chain

binding [2]: binds
binding [3]: binds
binding [4]: binds
B2: TRAF6 full length (Flag-tagged copy and Myc-tagged copy) (protein, UniProt P70196-1 1-530)
chain: T1 chain

binding [5]: binds
B3: MBP-TRAF6-Flag, P70196-1 1-530 (protein)
chain: T1 chain

binding [6]: binds
B4: TRAF6 mutant M3 (I307A, L310A, I342A, L345A), Flag-tagged (protein, UniProt P70196-1 1-530)
chain: T1 chain with I307A, L310A, I342A, L345A
